{"source": "patent US9901616", "about": "(dated 2018)", "test": "general procedure: peptide synthesis; glycine (G) based resin", "settings": "conjugation step"}
{"substance": "PLGA-b-PEG-LIKKPF", "values": [{"measurement": "conjugation yield", "result": "95%-55%"}]}
